These are yes or no findings as the source states them, for the method shown. Binding seen in cells or lysates may run through a third protein. These calls come from enrichment with a bait or labelling near it, and not all partners need be listed.
B1: discoidin, CUB and LCCL domain containing protein 1 (protein, UniProt Q8N8Z6 35-715)
chain: EELGDGCGHLVTYQDSGTMTSKNYPGTYPNHTVCEKTITVPKGKRLILRLGDLDIESQTCASDYLLFTSSSDQYGPYCGSMTVPKELLLNTSEVTVRFESGSHISGRGFLLTYASSDHPDLITCLERASHYLKTEYSKFCPAGCRDVAGDISGNMVDGYRDTSLLCKAAIHAGIIADELGGQISVLQRKGISRYEGILANGVLSRDGSLSDKRFLFTSNGCSRSLSFEPDGQIRASSSWQSVNESGDQVHWSPGQARLQDQGPSWASGDSSNNHKPREWLEIDLGEKKKITGIRTTGSTQSNFNFYVKSFVMNFKNNNSKWKTYKGIVNNEEKVFQGNSNFRDPVQNNFIPPIVARYVRVVPQTWHQRIALKVELIGCQITQGNDSLVWRKTSQSTSVSTKKEDETITRPIPSEETSTGINITTVAIPLVLLVVLVFAGMGIFAAFRKKKKKGSPYGSAEAQKTDCWKQIKYPFARHQSAEFTISYDNEKEMTQKLDLITSDMADYQQPLMIGTGTVTRKGSTFRPMDTDAEEAGVSTDAGGHYDCPQRAGRHEYALPLAPPEPEYATPIVERHVLRAHTFSAQSGYRVPGPQPGHKHSLSSGGFSPVAGVGAQDGDYQRPHSAQPADRGYDRPKAVSALATESGHPDSQKPPTHPGTSDSYSAPRDCLTPLNQTAMTALL
B2: syndecan-1 (protein, UniProt P18827 23-310)
chain: QIVATNLPPEDQDGSGDDSDNFSGSGAGALQDITLSQQTPSTWKDTQLLTAIPTSPEPTGLEATAASTSTLPAGEGPKEGEAVVLPEVEPGLTAREQEATPRPRETTQLPTTHLASTTTATTAQEPATSHPHRDMQPGHHETSTPAGPSQADLHTPHTEDGGPSATERAAEDGASSQLPAAEGSGEQDFTFETSGENTAVVAVEPDRRNQSPVDQGATGASQGLLDRKEVLGGVIAGGLVGLIFAVCLVGFMLYRMKKKDEGSYSLEEPKQANGGAYQKPTKQEEFYA
B3: dystroglycan-1 (protein, UniProt Q14118 30-895)
chain: HWPSEPSEAVRDWENQLEASMHSVLSDLHEAVPTVVGIPDGTAVVGRSFRVTIPTDLIASSGDIIKVSAAGKEALPSWLHWDSQSHTLEGLPLDTDKGVHYISVSATRLGANGSHIPQTSSVFSIEVYPEDHSELQSVRTASPDPGEVVSSACAADEPVTVLTVILDADLTKMTPKQRIDLLHRMRSFSEVELHNMKLVPVVNNRLFDMSAFMAGPGNAKKVVENGALLSWKLGCSLNQNSVPDIHGVEAPAREGAMSAQLGYPVVGWHIANKKPPLPKRVRRQIHATPTPVTAIGPPTTAIQEPPSRIVPTPTSPAIAPPTETMAPPVRDPVPGKPTVTIRTRGAIIQTPTLGPIQPTRVSEAGTTVPGQIRPTMTIPGYVEPTAVATPPTTTTKKPRVSTPKPATPSTDSTTTTTRRPTKKPRTPRPVPRVTTKVSITRLETASPPTRIRTTTSGVPRGGEPNQRPELKNHIDRVDAWVGTYFEVKIPSDTFYDHEDTTTDKLKLTLKLREQQLVGEKSWVQFNSNSQLMYGLPDSSHVGKHEYFMHATDKGGLSAVDAFEIHVHRRPQGDRAPARFKAKFVGDPALVLNDIHKKIALVKKLAFAFGDRNCSTITLQNITRGSIVVEWTNNTLPLEPCPKEQIAGLSRRIAEDDGKPRPAFSNALEPDFKATSITVTGSGSCRHLQFIPVVPPRRVPSEAPPTEVPDRDPEKSSEDDVYLHTVIPAVVVAAILLIAGIIAMICYRKKRKGKLTLEDQATFIKKGVPIIFADELDDSKPPPSSSMPLILQEEKAPLPPPEYPNQSVPETTPLNQDTMGEYTPLRDEDPNAPPYQPPPPFTAPMEGKGSRPKNMTPYRSPPPYVPP
B4: Protein kinase C iota type (protein, UniProt P41743 1-596)
chain: MPTQRDSSTMSHTVAGGGSGDHSHQVRVKAYYRGDIMITHFEPSISFEGLCNEVRDMCSFDNEQLFTMKWIDEEGDPCTVSSQLELEEAFRLYELNKDSELLIHVFPCVPERPGMPCPGEDKSIYRRGARRWRKLYCANGHTFQAKRFNRRAHCAICTDRIWGLGRQGYKCINCKLLVHKKCHKLVTIECGRHSLPQEPVMPMDQSSMHSDHAQTVIPYNPSSHESLDQVGEEKEAMNTRESGKASSSLGLQDFDLLRVIGRGSYAKVLLVRLKKTDRIYAMKVVKKELVNDDEDIDWVQTEKHVFEQASNHPFLVGLHSCFQTESRLFFVIEYVNGGDLMFHMQRQRKLPEEHARFYSAEISLALNYLHERGIIYRDLKLDNVLLDSEGHIKLTDYGMCKEGLRPGDTTSTFCGTPNYIAPEILRGEDYGFSVDWWALGVLMFEMMAGRSPFDIVGSSDNPDQNTEDYLFQVILEKQIRIPRSLSVKAASVLKSFLNKDPKERLGCHPQTGFADIQGHPFFRNVDWDMMEQKQVVPPFKPNISGEFGLDNFDSQFTNEPVQLTPDDDDIVRKIDQSEFEGFEYINPLLMSAEECV
B5: Diacylglycerol kinase delta (protein, UniProt Q16760 1-1214)
chain: MAAAAGAPPPGPPQPPPPPPPEESSDSEPEAEPGSPQKLIRKVSTSGQIRQKTIIKEGMLTKQNNSFQRSKRRYFKLRGRTLYYAKTAKSIIFDEVDLTDASVAESSTKNVNNSFTVITPCRKLILCADNRKEMEDWIAALKTVQNREHFEPTQYSMDHFSGMHNWYACSHARPTYCNVCREALSGVTSHGLSCEVCKFKAHKRCAVRATNNCKWTTLASIGKDIIEDADGIAMPHQWLEGNLPVSAKCTVCDKTCGSVLRLQDWRCLWCKAMVHTSCKESLLTKCPLGLCKVSVIPPTALNSIDSDGFWKASCPPSCTSPLLVFVNSKSGDNQGVKFLRRFKQLLNPAQVFDLMNGGPHLGLRLFQKFDTFRILVCGGDGSVGWVLSEIDSLNLHKQCQLGVLPLGTGNDLARVLGWGSACDDDTQLPQILEKLERASTKMLDRWSVMAYEAKLPRQASSSTVTEDFSEDSEVQQILFYEDSVAAHLSKILTSDQHSVVISSAKVLCETVKDFVARVGKAYEKTTESSEESEVMAKKCSVLKEKLDSLLKTLDDESQASSSLPNPPPTIAEEAEDGDGSGSICGSTGDRLVASACPARPQIFRPREQLMLRANSLKKAIRQIIEHTEKAVDEQNAQTQEQEGFVLGLSESEEKMDHRVCPPLSHSESFGVPKGRSQRKVSKSPCEKLISKGSLSLGSSASLPPQPGSRDGLPALNTKILYPNVRAGMSGSLPGGSVISRLLINADPFNSEPETLEYYTEKCVMNNYFGIGLDAKISLDFNNKRDEHPEKCRSRTKNMMWYGVLGTKELLHRTYKNLEQKVLLECDGRPIPLPSLQGIAVLNIPSYAGGTNFWGGTKEDDTFAAPSFDDKILEVVAVFGSMQMAVSRVIRLQHHRIAQCRTVKISILGDEGVPVQVDGEAWVQPPGYIRIVHKNRAQTLTRDRAFESTLKSWEDKQKCELPRPPSCSLHPEMLSEEEATQMDQFGQAAGVLIHSIREIAQSHRDMEQELAHAVNASSKSMDRVYGKPRTTEGLNCSFVLEMVNNFRALRSETELLLSGKMALQLDPPQKEQLGSALAEMDRQLRRLADTPWLCQSAEPGDEESVMLDLAKRSRSGKFRLVTKFKKEKNNKNKEAHSSLGAPVHLWGTEEVAAWLEHLSLCEYKDIFTRHDIRGSELLHLERRDLKDLGVTKVGHMKRILCGIKELSRSAPAVEA

By UniProt entry, the sequences of proteins in these tests, tags left out.
UniProt P21926: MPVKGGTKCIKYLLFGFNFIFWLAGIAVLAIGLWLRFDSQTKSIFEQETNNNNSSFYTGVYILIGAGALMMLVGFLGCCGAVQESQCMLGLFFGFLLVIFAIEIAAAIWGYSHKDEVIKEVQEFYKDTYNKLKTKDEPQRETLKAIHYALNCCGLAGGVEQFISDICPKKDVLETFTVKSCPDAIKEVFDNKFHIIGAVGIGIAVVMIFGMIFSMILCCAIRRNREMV

Target: CD9:TurboID fusion protein (human) (UniProt P21926)
Test: proximity labelling; CD9:TurboID-V5 stably expressed in CD9-/- A549 cells; 50 μM biotin for 30, 60 or 240 min; cells uninfected or infected with N. meningitidis MC58 or S. aureus SH1000 (MOI = 50); RIPA lysis, streptavidin bead pull-down, on-bead digestion, LC-MS/MS with LFQ; enrichment against cytosolic TurboID (FDR 0.01, s0 = 2), infected against uninfected (FDR 0.05, s0 = 0.1)

Row | Binder | binding
1 | B1 | binds
2 | B2 | binds
3 | B3 | binds
4 | B4 | binds
5 | B5 | binds
